Source: the supplement of paper PMC8728848
The list shows a part of the results.

Key:
Assay in all cases: glycan array binding signal (z-score within array); higher = stronger binding
Conditions in all cases: glycan notation: IUPAC condensed, linker removed
[1] = target: GlcNAc(b1-3)Gal(b1-4)GlcNAc(b1-3)Gal(b1-4)GlcNAc(b1-3)GalNAc
Method in brief: (§1)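 Glycan array binding is given as a within-array Z-score, which can be read as non-binding when negative. The arrays, 3228 of them, came from the Consortium for Functional Glycomics database and were retained only where the protein sequence was available. Z-scores were averaged across arrays of the same protein sequence at different concentrations or buffers and across linkers.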

[2] = target: GlcNAc(b1-3)Gal(b1-4)GlcNAc(b1-3)GalNAc
Method in brief: as §1

[3] = target: GlcNAc(b1-3)Gal(b1-4)GlcNAc(b1-3)[GlcNAc(b1-3)Gal(b1-4)GlcNAc(b1-3)]GalNAc
Method in brief: as §1

[4] = target: GlcNAc(b1-3)Gal(b1-4)GlcNAc(b1-6)[Gal(b1-3)]GalNAc
Method in brief: as §1

[5] = target: GlcNAc(b1-3)Gal(b1-4)GlcNAc(b1-6)[GlcNAc(b1-3)Gal(b1-3)]GalNAc
Method in brief: as §1

[6] = target: GlcNAc(b1-3)Gal(b1-4)GlcNAc(b1-6)[GlcNAc(b1-3)]Gal(b1-4)GlcNAc
Method in brief: as §1

GlcNAc(b1-3)GalNAc = target: GlcNAc(b1-3)GalNAc
Method in brief: as §1

GlcNAc(b1-3)Man = target: GlcNAc(b1-3)Man
Method in brief: as §1

[7] = target: GlcNAc(b1-3)[GlcNAc(b1-4)][GlcNAc(b1-6)]GlcNAc
Method in brief: as §1

[8] = target: GlcNAc(b1-3)[GlcNAc(b1-6)]Gal(b1-4)GlcNAc
Method in brief: as §1

[9] = target: GlcNAc(b1-3)[GlcNAc(b1-6)]GalNAc
Method in brief: as §1

[10] = target: GlcNAc(b1-4)Gal(b1-4)GlcNAc
Method in brief: as §1

GlcNAc(b1-4)GlcNAc = target: GlcNAc(b1-4)GlcNAc
Method in brief: as §1

[11] = target: GlcNAc(b1-4)GlcNAc(b1-4)GlcNAc
Method in brief: as §1

[12] = target: GlcNAc(b1-4)GlcNAc(b1-4)GlcNAc(b1-4)GlcNAc(b1-4)GlcNAc
Method in brief: as §1

[13] = target: GlcNAc(b1-4)GlcNAc(b1-4)GlcNAc(b1-4)GlcNAc(b1-4)GlcNAc(b1-4)GlcNAc
Method in brief: as §1

[14] = target: GlcNAc(b1-4)[GlcNAc(b1-6)]GalNAc
Method in brief: as §1

[15] = target: GlcNAc(b1-6)Gal(b1-4)GlcNAc
Method in brief: as §1

GlcNAc(b1-6)GalNAc = target: GlcNAc(b1-6)GalNAc
Method in brief: as §1

[16] = target: GlcNAc6S(b1-3)Gal(b1-4)GlcNAc
Method in brief: as §1

Kdn(a2-3)Gal(b1-3)GalNAc = target: Kdn(a2-3)Gal(b1-3)GalNAc
Method in brief: as §1

Kdn(a2-3)Gal(b1-3)GlcNAc = target: Kdn(a2-3)Gal(b1-3)GlcNAc
Method in brief: as §1

Kdn(a2-3)Gal(b1-4)Glc = target: Kdn(a2-3)Gal(b1-4)Glc
Method in brief: as §1

Kdn(a2-3)Gal(b1-4)GlcNAc = target: Kdn(a2-3)Gal(b1-4)GlcNAc
Method in brief: as §1

[17] = target: Kdn(a2-3)Gal(b1-4)[Fuc(a1-3)]GlcNAc
Method in brief: as §1

Kdn(a2-6)Gal(b1-4)GlcNAc = target: Kdn(a2-6)Gal(b1-4)GlcNAc
Method in brief: as §1

[18] = target: Man(a1-2)Man(a1-2)Man(a1-3)Man
Method in brief: as §1

[19] = target: Man(a1-2)Man(a1-2)Man(a1-6)[Man(a1-3)]Man
Method in brief: as §1

Man(a1-2)Man(a1-3)Man = target: Man(a1-2)Man(a1-3)Man
Method in brief: as §1

[20] = target: Man(a1-2)Man(a1-3)[Man(a1-2)Man(a1-6)]Man
Method in brief: as §1

[21] = target: Man(a1-2)Man(a1-3)[Man(a1-2)Man(a1-6)]Man(a1-6)[Man(a1-2)Man(a1-2)Man(a1-3)]Man
Method in brief: as §1

[22] = target: Man(a1-2)Man(a1-3)[Man(a1-2)Man(a1-6)]Man(a1-6)[Man(a1-2)Man(a1-2)Man(a1-3)]Man(b1-4)GlcNAc(b1-4)GlcNAc
Method in brief: as §1

[23] = target: Man(a1-2)Man(a1-3)[Man(a1-6)]Man(a1-6)[Man(a1-2)Man(a1-3)]Man(b1-4)GlcNAc(b1-4)GlcNAc
Method in brief: as §1

[24] = target: Man(a1-2)Man(a1-6)[Man(a1-3)]Man(a1-6)[Man(a1-2)Man(a1-2)Man(a1-3)]Man
Method in brief: as §1

[25] = target: Man(a1-2)Man(a1-6)[Man(a1-3)]Man(a1-6)[Man(a1-2)Man(a1-2)Man(a1-3)]Man(b1-4)GlcNAc(b1-4)GlcNAc
Method in brief: as §1

Man(a1-3)[Man(a1-6)]Man = target: Man(a1-3)[Man(a1-6)]Man
Method in brief: as §1

[26] = target: Man(a1-3)[Man(a1-6)]Man(a1-6)[Man(a1-2)Man(a1-3)]Man(b1-4)GlcNAc(b1-4)GlcNAc
Method in brief: as §1

B1: SspB C123 (Streptococcus gordonii), Q54186 (protein)
chain: MAHFHYSSLLAQPQINKEIKNEDGVDIDRTLVAKQSIGKFELKTEALTAGRPKTTSFVLVDPLPTGYKFDLDATKAASTGFDTTYDEASHTVTFKATDETLATYNADLTKPVETLHPTVVGRVLNDGATYTNNFTLTVNDAYGIKSNVVRVTTPGKPNDPDNPNNNYIKPTKVNKNKEGLNIDGKEVLAGSTNYYELTWDLDQYKGDKSSKEAIQNGFYYVDDYPEEALDVRPDLVKVADEKGNQVSGVSVQQYDSLEAAPKKVQDLLKKANITVKGAFQLFSADNPEEFYKQYVSTGTSLVITDPMTVKSEFGKTGGKYENKAYQIDFGNGYATEVVVNNVPKITPKKDVTVSLDPTSENLDGQTVQLYQTFNYRLIGGFIPQNHSEELEDYSFVDDYDQAGDQYTGNYKTFSSLNLTMKDGSVIKAGTDLTSQTTAETDATNGIVTVRFKEDFLQKISLDSPFQAETYLQMRRIAIGTFENTYVNTVNKVAYASAAALEHHHHHH
- glycan array binding signal (z-score) [1]: -0.223
- glycan array binding signal (z-score) [2]: -1.44
- glycan array binding signal (z-score) [3]: 0.786
- glycan array binding signal (z-score) [4]: 0.608
- glycan array binding signal (z-score) [5]: 0.099
- glycan array binding signal (z-score) [6]: -0.188
- glycan array binding signal (z-score) (GlcNAc(b1-3)GalNAc): -0.082
- glycan array binding signal (z-score) (GlcNAc(b1-3)Man): -0.978
- glycan array binding signal (z-score) [7]: -0.012
- glycan array binding signal (z-score) [8]: -1.2
- glycan array binding signal (z-score) [9]: -0.348
- glycan array binding signal (z-score) [10]: -0.313
- glycan array binding signal (z-score) (GlcNAc(b1-4)GlcNAc): -0.651
- glycan array binding signal (z-score) [11]: -0.442
- glycan array binding signal (z-score) [12]: 0.299
- glycan array binding signal (z-score) [13]: -0.842
- glycan array binding signal (z-score) [14]: -0.264
- glycan array binding signal (z-score) [15]: -0.895
- glycan array binding signal (z-score) (GlcNAc(b1-6)GalNAc): -0.398
- glycan array binding signal (z-score) [16]: -0.867
- glycan array binding signal (z-score) (Kdn(a2-3)Gal(b1-3)GalNAc): 0.842
- glycan array binding signal (z-score) (Kdn(a2-3)Gal(b1-3)GlcNAc): 1.33
- glycan array binding signal (z-score) (Kdn(a2-3)Gal(b1-4)Glc): -1.06
- glycan array binding signal (z-score) (Kdn(a2-3)Gal(b1-4)GlcNAc): 0.864
- glycan array binding signal (z-score) [17]: -0.919
- glycan array binding signal (z-score) (Kdn(a2-6)Gal(b1-4)GlcNAc): 1.04
- glycan array binding signal (z-score) [18]: -0.657
- glycan array binding signal (z-score) [19]: -0.291
- glycan array binding signal (z-score) (Man(a1-2)Man(a1-3)Man): -0.883
- glycan array binding signal (z-score) [20]: -0.555
- glycan array binding signal (z-score) [21]: -0.508
- glycan array binding signal (z-score) [22]: -1.14
- glycan array binding signal (z-score) [23]: -0.426
- glycan array binding signal (z-score) [24]: -0.339
- glycan array binding signal (z-score) [25]: -1.18
- glycan array binding signal (z-score) (Man(a1-3)[Man(a1-6)]Man): 0.367
- glycan array binding signal (z-score) [26]: -0.806
